Laboratory results reported in PubChem BioAssay AID493014 (National Center for Advancing Translational Sciences (NCATS), 2011).
Some of the results follow. The main result of the screen is listed elsewhere. These columns were measured beside it and carry no call. Most of these compounds were active or inconclusive in the main read-out, so they are no random draw. Words in brackets tell the shape of the fitted curve; partial curves, single points and poor fits give uncertain potencies.

Test: qHTS Assay to Find Inhibitors of Chronic Active B-Cell Receptor Signaling
Details: ABC-DLBCL IkBa-CBG/CBR reporter, luminescence ratio (green luciferase fused to IkBa over red control in TMD8 lymphoma cells), 4 h
In short: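 TMD8 human ABC-DLBCL cells with doxycycline-inducible IκBα–green luciferase fusion and unfused red luciferase, in 0.5% FBS medium; compounds up to 46 uM, 4 h at 37C. Green/red luminescence ratio, filter-overlap corrected, fitted to concentration-response curves.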

[1] = measured here: CBR red luminescence, cell number
[2] = measured here: IkBa-CBG green luminescence

SMILES	AC50 [1]	AC50 [2]
COc1cccc(OC)c1-c1nnc(-c2cn(C)c3ccccc23)o1	0.116 µM [rising, full curve, poor fit]	
COC(=O)c1cc(NC(=O)C2COc3ccccc3O2)ccc1Cl (centres undefined)	0.651 µM [rising, full curve, poor fit]	
COC(=O)c1ccc(S(=O)(=O)N2CCC(C(N)=O)CC2)n1C	3.16 µM [rising, partial curve, poor fit]	
COC(=O)c1cc(NC(=O)C2COc3ccccc3O2)cc(C(=O)OC)c1 (centres undefined)	20.6 µM [rising, partial curve, poor fit]	
Cc1cc(=O)n2[nH]c(-c3ccc(F)cc3)nc2n1	6.31 µM [falling, partial curve]	
O=C(Cc1ccccc1)N/N=C/c1cc(Br)c(Br)o1	0.891 µM [rising, full curve]	
Clc1ccc2c(c1)c1cc(Cl)ccc1n2CN1CCOCC1	23.1 µM [rising, partial curve]	
Clc1nc2ccccc2cc1-c1nnn(-c2ccccc2)n1	15.8 µM [falling, single point]	
Cn1[nH]c(-c2ccccc2)c(/C=N/O)c1=O	2 µM [rising, partial curve, poor fit]	
CCOC(=O)CN1C(=O)C(Sc2n[nH]c(-c3cccc(C)c3)n2)CCc2ccccc21 (centres undefined)	11.2 µM [falling, single point]	
CC1CN(c2ccc([N+](=O)[O-])c(NCCOc3ccc(Cl)cc3)c2)CC(C)N1 (centres undefined)	11.2 µM [falling, single point]	
COc1cc(OC)nc(-n2ncc(Br)c(Br)c2=O)n1	4.61 µM [falling, full curve]	3.26 µM [rising, full curve, poor fit]
COc1ccccc1Nc1nc(-c2cccc([N+](=O)[O-])c2)cs1	17.8 µM [falling, single point]	
Nc1cc(N)nc(SCc2nnnn2-c2ccc(Cl)cc2)n1	20.6 µM [rising, partial curve, poor fit]	
COC(=O)CSc1nc2c(c(=O)n(C)c(=O)n2C)n1CCC(C)C	20.6 µM [falling, partial curve, poor fit]	
Cc1cc(Nc2ccccc2C(=O)O)n(-c2cccc(Cl)c2)n1	0.355 µM [falling, full curve, poor fit]	
CC1=NNC(=O)C1Oc1ccccc1 (centres undefined)	35.5 µM [rising, single point]	
CC(C)(C)c1cc(C(=O)N2CCc3ccccc3C2)ccn1	7.94 µM [rising, partial curve]	
O=C/C(=C\Nc1ccc(Cl)cn1)c1nc2ccccc2o1	2.59 µM [rising, partial curve, poor fit]	
O=[N+]([O-])/C=C/c1cc2ccccc2[nH]1	35.5 µM [rising, single point]	35.5 µM [falling, partial curve, poor fit]
c1ccc2c(Nc3nc4c(s3)CCCC4)cccc2c1	14.1 µM [falling, partial curve, poor fit]	

Full records, quoted from the list.
`COC(=O)c1ccc(S(=O)(=O)N2CCC(C(N)=O)CC2)n1C` in the list: AC50 [1]: 3.16 µM [rising, partial curve, poor fit]
`COc1ccccc1Nc1nc(-c2cccc([N+](=O)[O-])c2)cs1` in the list: AC50 [1]: 17.8 µM [falling, single point]

Next compounds.

SMILES	AC50 [1]	AC50 [2]
O=C(Nc1cc(N2CCOCC2)ncn1)Nc1cccc2ccccc12	11.2 µM [rising, partial curve, poor fit]	
Cc1c(Br)c([N+](=O)[O-])nn1CC(=O)Nc1ccc(Cc2ccncc2)cc1	18.4 µM [falling, single point]	
COc1cc(C(=O)Nc2nc(N)n(-c3ccccc3)n2)cc(OC)c1OC	5.8 µM [rising, partial curve, poor fit]	
O=C(N/N=C/c1ccncc1)c1cccc(N/N=C/c2ccncc2)c1	10 µM [falling, partial curve, poor fit]	
O=C(C1=C[C@H](C2CCCCC2)C[C@H](OCc2ccc(CO)cc2)O1)N1CCN(Cc2ccccc2)CC1	15.8 µM [falling, single point]	
O=C(NNC(=O)c1cc2cc(Br)ccc2oc1=O)c1ccc(O)cc1O	15.8 µM [falling, partial curve]	
CC(C#N)OC(=O)c1cccnc1SCC(=O)Nc1ccc2c(c1)OCO2 (centres undefined)	11.6 µM [rising, partial curve, poor fit]	
CCCCn1c(SCC(=O)NCc2ccco2)nc2ccc(N3CCOCC3)cc2c1=O	7.31 µM [falling, partial curve]	
Cc1cc(C)c(C#N)c(SCc2ccccc2C)n1	13 µM [rising, partial curve, poor fit]	
O=C(CC(CC(=O)c1ccc(Br)cc1)c1cccnc1)c1ccc(Br)cc1	0.1 µM [rising, full curve, poor fit]	
COc1ccccc1CNC(=O)c1c(-c2ccccc2)nn(-c2ccccc2)c1C	7.31 µM [falling, partial curve, poor fit]	
O=C(Cc1ccccc1)N1CCN=C1SCc1cccc([N+](=O)[O-])c1	8.91 µM [falling, partial curve, poor fit]	
O=C(COc1ccccc1)Nc1ccc(S(=O)(=O)N2CCCCCC2)cc1	2.91 µM [falling, single point]	
O=C(COC(=O)[C@@H]1CCCN1S(=O)(=O)c1ccccc1F)Nc1ccc(OC(F)F)cc1	12.6 µM [rising, single point]	
COc1ccc(-c2csc3ncn(-c4ccc(C)cc4)c(=O)c23)cc1OC	1.12 µM [rising, full curve, poor fit]	
O=C(Nc1ccc(C(F)(F)F)cc1)c1cc(S(=O)(=O)NC2CCCCC2)ccc1F	15.8 µM [falling, single point]	
COc1ccccc1C1C2=C(COC2=O)Nc2cc3c(cc21)OCO3 (centres undefined)	0.562 µM [rising, full curve, poor fit]	0.562 µM [falling, full curve, poor fit]
CCc1ccc(/C=C/C(=O)C2C(=O)c3ccccc3C2=O)cc1	3.55 µM [falling, full curve]	
Cc1ccc2[nH]cc(S(=O)(=O)c3ccc(F)cc3)c(=O)c2c1	35.5 µM [falling, partial curve, poor fit]	
CN(C)c1ccc(S(=O)(=O)NCC(=O)NCCOc2ccccc2F)cc1[N+](=O)[O-]	4.11 µM [rising, partial curve, poor fit]	
CCCc1cc(C(=O)NCc2ccccc2)no1	20.6 µM [falling, partial curve]	

SMILES	AC50 [1]	AC50 [2]
COc1ccc(-c2cnnn2-c2ccc([N+](=O)[O-])cc2)cc1	3.98 µM [rising, full curve]	
COc1ccc(Br)cc1/C=C/C(=O)Nc1ccc(C)cc1	23.1 µM [falling, single point]	
C=CCNC(=O)C1CC2Cn3c(nc4cc5ccccc5cc43)C2N1C (centres undefined)	17.8 µM [rising, single point]	
CN1CCN(C(=O)c2ccc3c(c2)N(Cc2cccc(Cl)c2)C(=O)c2ccccc2S3(=O)=O)CC1	15.8 µM [falling, partial curve, poor fit]	
Cn1nccc1C(=O)Nc1ccc(OC(=O)c2ccnn2C)cc1	9.2 µM [rising, partial curve, poor fit]	
Cc1ccc(NC(=O)c2cnccn2)cc1	14.1 µM [falling, single point]	
CCN(CC)c1ccc(/C=C2\CCC(/C=C(\C#N)C(=O)Nc3ccccc3F)=C2N2CCOCC2)cc1	25.9 µM [rising, partial curve, poor fit]	
C=CCNC(=S)N/N=C(\C)c1cc(OC)c(OC)c(OC)c1	29.1 µM [falling, single point]	23.1 µM [falling, single point]
COc1ccc(C(=O)Oc2ccc3c(c2)OCO3)cc1OC	7.08 µM [rising, partial curve, poor fit]	
Clc1ccc(Cn2ncc3c(N4CCCC4)ncnc32)cc1	18.4 µM [falling, partial curve, poor fit]	
Fc1ccc(-[n+]2nc(Nc3ccccc3)sc2-c2c(Cl)cccc2Cl)cc1	12.6 µM [falling, partial curve, poor fit]	
Cc1ccc(C)c(C(=O)Cn2ncc(Cl)c(Cl)c2=O)c1	13 µM [falling, partial curve]	10.3 µM [rising, partial curve, poor fit]
CC(Cc1ccccc1)NC(=O)/C=C/c1ccc([N+](=O)[O-])cc1 (centres undefined)	7.31 µM [rising, full curve, poor fit]	
CC(C)(C)C(=O)NC(=S)NNC(=O)c1sc2ccccc2c1Cl	6.51 µM [rising, single point]	6.51 µM [falling, single point]
Cc1ccc(C)c(OCCCN2CCCC2)c1	23.1 µM [rising, single point]	
CN1C(=O)/C(=C/c2ccc(OCc3cccc(F)c3)cc2)NC1=S	15.8 µM [rising, partial curve, poor fit]	
COc1cc(O)sc1C=Nc1ccc(Cl)cc1		11.2 µM [falling, single point]
Cc1cc(C)cc(N2CC(O)=C(c3nc4ccccc4c(=O)[nH]3)C2=N)c1	12.6 µM [rising, partial curve]	11.2 µM [falling, partial curve]
Cc1nn(-c2ccccc2)c2nc(C(F)F)cc(C(F)F)c12	25.9 µM [rising, single point]	
CC(=O)Cn1nnc2sc3c(c2c1=O)CCC(C(C)(C)C)C3 (centres undefined)	11.2 µM [rising, single point]	

Two compounds drawn at random from those above, as already listed:
SMILES	AC50 [1]	AC50 [2]
Clc1ccc(Cn2ncc3c(N4CCCC4)ncnc32)cc1	18.4 µM [falling, partial curve, poor fit]	
Cc1cc(C)cc(N2CC(O)=C(c3nc4ccccc4c(=O)[nH]3)C2=N)c1	12.6 µM [rising, partial curve]	11.2 µM [falling, partial curve]
